From the supplement of paper PMC10849652
This is one part of the list.

The chains behind the UniProt entries cited, without tags or fusion partners. Where a name states a change or a piece, a line headed by the entry shows the natural chain unless it says otherwise.
UniProt O75694: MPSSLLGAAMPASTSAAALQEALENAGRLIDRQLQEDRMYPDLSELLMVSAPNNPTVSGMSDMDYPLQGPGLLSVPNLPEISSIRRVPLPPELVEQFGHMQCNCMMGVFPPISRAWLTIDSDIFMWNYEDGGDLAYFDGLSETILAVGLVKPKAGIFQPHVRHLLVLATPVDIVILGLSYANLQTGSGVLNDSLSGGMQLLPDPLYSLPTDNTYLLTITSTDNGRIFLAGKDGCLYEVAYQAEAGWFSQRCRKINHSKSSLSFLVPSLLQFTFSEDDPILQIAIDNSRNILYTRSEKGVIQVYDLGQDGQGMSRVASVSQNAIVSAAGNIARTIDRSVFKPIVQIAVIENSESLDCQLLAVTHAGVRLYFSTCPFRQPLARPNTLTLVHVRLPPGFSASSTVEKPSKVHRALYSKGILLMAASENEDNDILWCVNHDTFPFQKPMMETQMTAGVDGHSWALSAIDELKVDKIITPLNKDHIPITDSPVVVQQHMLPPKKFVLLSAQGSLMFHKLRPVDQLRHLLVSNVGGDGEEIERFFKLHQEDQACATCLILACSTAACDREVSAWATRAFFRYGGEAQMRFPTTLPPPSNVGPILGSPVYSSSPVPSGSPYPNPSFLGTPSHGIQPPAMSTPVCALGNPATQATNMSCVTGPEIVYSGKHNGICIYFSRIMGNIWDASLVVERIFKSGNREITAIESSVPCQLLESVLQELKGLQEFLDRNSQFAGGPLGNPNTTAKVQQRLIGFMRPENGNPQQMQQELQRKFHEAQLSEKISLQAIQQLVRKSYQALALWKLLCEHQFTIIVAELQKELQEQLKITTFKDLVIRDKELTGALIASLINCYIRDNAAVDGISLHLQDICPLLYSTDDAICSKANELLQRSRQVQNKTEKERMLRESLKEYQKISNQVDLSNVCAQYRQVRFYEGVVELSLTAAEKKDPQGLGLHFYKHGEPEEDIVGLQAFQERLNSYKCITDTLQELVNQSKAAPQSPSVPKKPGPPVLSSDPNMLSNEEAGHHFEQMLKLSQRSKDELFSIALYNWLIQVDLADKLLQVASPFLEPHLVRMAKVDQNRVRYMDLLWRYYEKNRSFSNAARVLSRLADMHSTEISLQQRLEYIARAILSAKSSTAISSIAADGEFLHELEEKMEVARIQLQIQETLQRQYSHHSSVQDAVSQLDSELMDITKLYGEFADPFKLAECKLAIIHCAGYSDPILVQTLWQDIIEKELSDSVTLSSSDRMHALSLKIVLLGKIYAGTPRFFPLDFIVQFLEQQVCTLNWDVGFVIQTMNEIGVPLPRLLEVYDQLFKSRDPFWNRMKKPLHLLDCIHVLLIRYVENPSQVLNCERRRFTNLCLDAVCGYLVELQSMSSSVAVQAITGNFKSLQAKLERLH
UniProt Q9Y5Y2: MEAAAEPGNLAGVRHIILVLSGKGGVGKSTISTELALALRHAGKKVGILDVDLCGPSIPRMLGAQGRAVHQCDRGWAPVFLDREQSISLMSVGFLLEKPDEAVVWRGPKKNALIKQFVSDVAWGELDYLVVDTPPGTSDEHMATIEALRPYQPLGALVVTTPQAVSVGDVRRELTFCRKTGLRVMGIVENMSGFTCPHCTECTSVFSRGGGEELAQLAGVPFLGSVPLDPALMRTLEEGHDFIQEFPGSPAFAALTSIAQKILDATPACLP
UniProt Q9NV35: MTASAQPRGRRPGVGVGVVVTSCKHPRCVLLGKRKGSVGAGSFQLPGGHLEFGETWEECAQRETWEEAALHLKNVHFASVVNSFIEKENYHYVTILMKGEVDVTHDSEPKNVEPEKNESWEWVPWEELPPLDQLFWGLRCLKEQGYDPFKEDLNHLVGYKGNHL
UniProt Q9UQ80: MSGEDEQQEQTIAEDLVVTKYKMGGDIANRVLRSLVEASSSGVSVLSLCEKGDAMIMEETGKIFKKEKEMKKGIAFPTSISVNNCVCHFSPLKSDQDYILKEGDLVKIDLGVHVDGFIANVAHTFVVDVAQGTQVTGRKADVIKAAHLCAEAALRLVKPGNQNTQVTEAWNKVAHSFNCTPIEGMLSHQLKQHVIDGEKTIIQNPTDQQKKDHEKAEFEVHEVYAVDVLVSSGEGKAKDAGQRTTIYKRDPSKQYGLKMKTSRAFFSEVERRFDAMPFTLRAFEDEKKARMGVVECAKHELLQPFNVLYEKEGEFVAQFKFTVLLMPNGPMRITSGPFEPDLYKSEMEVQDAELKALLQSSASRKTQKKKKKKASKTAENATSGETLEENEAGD
UniProt O60502: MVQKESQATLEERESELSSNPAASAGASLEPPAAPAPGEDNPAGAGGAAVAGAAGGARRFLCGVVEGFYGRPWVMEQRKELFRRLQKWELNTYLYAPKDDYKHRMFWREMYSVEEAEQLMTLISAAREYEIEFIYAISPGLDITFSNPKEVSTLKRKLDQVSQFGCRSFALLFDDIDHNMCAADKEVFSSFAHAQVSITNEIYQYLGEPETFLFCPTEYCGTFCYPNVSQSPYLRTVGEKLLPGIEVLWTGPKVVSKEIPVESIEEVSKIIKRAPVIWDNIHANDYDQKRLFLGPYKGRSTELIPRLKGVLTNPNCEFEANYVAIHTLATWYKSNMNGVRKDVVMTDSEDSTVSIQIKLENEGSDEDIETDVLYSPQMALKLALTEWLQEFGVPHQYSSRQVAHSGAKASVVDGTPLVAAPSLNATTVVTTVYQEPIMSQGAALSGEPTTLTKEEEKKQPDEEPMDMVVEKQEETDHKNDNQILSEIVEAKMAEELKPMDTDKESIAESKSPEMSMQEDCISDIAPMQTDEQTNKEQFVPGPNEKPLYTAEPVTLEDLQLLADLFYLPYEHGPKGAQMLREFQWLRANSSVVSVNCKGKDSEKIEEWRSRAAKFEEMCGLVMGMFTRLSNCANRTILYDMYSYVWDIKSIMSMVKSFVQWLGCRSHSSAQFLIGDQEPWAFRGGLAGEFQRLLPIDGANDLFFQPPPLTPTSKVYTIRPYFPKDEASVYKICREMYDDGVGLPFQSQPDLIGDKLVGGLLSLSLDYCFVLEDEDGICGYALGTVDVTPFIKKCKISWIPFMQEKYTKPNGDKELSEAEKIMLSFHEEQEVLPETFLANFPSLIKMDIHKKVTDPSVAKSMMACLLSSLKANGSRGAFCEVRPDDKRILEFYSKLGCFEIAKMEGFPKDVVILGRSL
UniProt P55809: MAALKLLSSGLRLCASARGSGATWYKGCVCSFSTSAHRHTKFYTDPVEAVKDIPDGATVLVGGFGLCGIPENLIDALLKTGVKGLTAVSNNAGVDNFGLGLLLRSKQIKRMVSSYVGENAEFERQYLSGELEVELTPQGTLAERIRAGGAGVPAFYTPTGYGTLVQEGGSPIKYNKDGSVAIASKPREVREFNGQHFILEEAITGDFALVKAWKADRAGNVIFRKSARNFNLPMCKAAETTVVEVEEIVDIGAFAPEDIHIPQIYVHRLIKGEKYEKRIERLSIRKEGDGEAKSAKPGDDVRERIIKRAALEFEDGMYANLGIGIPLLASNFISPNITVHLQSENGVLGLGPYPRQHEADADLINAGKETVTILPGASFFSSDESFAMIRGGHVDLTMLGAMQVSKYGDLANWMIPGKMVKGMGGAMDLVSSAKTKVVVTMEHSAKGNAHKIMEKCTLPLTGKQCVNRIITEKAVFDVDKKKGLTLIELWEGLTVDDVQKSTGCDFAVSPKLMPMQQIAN
UniProt Q9NTK5, whole entry, looked up: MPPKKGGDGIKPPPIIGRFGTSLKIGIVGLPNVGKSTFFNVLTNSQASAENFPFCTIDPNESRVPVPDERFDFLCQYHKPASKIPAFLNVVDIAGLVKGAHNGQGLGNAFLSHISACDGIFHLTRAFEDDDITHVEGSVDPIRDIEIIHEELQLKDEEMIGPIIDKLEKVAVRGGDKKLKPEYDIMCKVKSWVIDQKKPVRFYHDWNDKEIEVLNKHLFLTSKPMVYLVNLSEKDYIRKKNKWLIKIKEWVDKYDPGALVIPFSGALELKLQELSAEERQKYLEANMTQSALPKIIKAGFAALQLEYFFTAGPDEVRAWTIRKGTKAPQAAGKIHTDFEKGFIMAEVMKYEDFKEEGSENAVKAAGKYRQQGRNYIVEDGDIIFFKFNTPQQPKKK
UniProt Q9BW91: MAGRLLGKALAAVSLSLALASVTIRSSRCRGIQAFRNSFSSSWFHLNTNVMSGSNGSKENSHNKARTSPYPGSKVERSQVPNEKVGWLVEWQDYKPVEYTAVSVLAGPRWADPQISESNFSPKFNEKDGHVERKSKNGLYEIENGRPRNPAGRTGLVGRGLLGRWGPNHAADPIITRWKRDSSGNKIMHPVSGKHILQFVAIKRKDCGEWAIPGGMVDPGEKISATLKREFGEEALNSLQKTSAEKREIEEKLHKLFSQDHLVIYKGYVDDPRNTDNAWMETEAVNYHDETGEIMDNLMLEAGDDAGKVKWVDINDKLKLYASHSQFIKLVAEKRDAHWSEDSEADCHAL
UniProt O15294: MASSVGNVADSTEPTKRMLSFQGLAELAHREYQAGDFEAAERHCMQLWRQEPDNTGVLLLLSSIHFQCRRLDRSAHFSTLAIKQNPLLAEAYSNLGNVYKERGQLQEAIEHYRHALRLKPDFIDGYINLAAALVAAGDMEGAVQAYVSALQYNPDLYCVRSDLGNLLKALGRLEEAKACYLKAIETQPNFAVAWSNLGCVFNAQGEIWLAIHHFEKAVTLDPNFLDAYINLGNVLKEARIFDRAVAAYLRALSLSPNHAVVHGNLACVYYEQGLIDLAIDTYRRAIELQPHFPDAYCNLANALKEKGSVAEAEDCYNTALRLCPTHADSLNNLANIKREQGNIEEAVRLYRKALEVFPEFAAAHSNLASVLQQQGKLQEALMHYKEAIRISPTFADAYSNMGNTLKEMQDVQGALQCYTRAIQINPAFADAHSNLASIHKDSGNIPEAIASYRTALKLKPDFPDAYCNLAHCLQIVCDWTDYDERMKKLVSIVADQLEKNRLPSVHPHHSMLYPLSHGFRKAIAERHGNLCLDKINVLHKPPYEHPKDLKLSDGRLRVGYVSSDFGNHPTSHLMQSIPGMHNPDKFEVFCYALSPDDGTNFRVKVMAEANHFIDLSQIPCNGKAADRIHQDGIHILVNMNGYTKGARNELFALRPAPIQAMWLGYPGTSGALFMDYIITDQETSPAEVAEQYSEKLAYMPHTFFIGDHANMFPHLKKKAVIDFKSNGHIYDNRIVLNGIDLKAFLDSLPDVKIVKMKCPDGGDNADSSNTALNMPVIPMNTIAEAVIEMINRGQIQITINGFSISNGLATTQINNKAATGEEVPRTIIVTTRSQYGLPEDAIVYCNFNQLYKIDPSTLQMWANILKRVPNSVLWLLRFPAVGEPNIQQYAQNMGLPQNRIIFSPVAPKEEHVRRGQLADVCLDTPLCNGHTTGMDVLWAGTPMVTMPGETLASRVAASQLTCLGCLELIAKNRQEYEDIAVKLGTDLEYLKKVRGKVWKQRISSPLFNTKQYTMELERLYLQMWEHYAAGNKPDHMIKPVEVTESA
UniProt Q9UKX7: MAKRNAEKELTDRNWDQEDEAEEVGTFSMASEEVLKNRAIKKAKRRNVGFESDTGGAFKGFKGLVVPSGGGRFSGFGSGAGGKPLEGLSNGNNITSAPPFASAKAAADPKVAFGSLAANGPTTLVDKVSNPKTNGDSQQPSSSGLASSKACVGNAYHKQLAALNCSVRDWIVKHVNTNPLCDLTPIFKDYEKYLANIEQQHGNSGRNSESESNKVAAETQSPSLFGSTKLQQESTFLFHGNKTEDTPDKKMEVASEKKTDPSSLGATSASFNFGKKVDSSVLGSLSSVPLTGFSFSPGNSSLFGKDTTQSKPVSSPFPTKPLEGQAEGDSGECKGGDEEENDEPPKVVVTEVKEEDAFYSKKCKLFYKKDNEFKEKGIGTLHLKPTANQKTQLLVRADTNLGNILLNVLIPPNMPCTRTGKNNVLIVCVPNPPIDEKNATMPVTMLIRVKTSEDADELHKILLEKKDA
UniProt Q96RS6: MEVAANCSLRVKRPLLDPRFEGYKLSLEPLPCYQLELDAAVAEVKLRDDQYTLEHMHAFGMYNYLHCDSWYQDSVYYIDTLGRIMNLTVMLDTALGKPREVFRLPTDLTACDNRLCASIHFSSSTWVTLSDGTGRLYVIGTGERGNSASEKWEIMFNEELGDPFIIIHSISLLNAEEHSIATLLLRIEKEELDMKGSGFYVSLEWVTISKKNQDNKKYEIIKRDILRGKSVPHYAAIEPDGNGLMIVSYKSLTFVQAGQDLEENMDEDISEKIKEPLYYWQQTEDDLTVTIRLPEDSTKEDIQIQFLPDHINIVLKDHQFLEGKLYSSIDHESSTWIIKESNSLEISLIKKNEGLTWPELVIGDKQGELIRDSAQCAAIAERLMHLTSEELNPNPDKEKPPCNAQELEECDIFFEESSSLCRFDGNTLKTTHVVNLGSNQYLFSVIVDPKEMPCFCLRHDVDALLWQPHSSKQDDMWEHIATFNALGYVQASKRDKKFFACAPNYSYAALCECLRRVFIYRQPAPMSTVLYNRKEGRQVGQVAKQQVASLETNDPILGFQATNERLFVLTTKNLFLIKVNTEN

Tests used:
Assay in all cases: log2 fold change, soluble protein after heating vs DMSO (PISA); higher = thermal stabilisation; K562 cells, 10 uM, 30 min; active = over 0.2 and 3.5 SD of the protein, either way, in both replicates (recomputed)
[1] = compound: CC[C@@H]1C(=O)N(C)c2cnc(Nc3ccc(C(=O)NC4CCN(C)CC4)cc3OC)nc2N1C1CCCC1
Summary of the method: (§1)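 Aliquots of K562 cells (2×10^6 cells/mL) treated with 10 μM compound for 30 min were heated for 3 min over 48°C-58°C. After pooling and extraction in PBS with 0.5% NP-40 at 4°C, soluble protein from a 21,000xg, 90 min spin was quantified by TMTpro 16plex LC-MS/MS with channel sums equalised. Thermal stability is expressed against control samples, from duplicates, as a log2 fold change.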

volasertib = compound: CC[C@@H]1C(=O)N(C)c2cnc(Nc3ccc(C(=O)N[C@H]4CC[C@H](N5CCN(CC6CC6)CC5)CC4)cc3OC)nc2N1C(C)C [volasertib]
Summary of the method: as §1

[2] = compound: CC[C@H](C)N1C=C(C2=C(C=C(C=C21)C3=CN=C(C=C3)N4CCNCC4)C(=O)NCC5=C(C=C(NC5=O)C)C)C
Summary of the method: as §1

epoxomicin = compound: CC[C@H](C)[C@@H](C(=O)N[C@@H]([C@@H](C)O)C(=O)N[C@@H](CC(C)C)C(=O)[C@]1(CO1)C)NC(=O)[C@H]([C@@H](C)CC)N(C)C(=O)C [epoxomicin]
Summary of the method: as §1

[3] = compound: CCn1c(C(=O)N(C2CC2)C2CC2)cc2c3c(ncn3C)c(Nc3cc(C)n(C)n3)nc21
Summary of the method: as §1

[4] = compound: CCn1cc(-c2ccnc3[nH]c(-c4cccc(CN(C)C)c4)cc23)c(-c2ccc(NC(=O)N(C)C)cc2)n1
Summary of the method: as §1

[5] = compound: CN(C)CC(=O)Nc1ccc2[nH]c(=O)c3ccccc3c2c1
Summary of the method: as §1

rosiglitazone = compound: CN(CCOC1=CC=C(C=C1)C[C@H]2C(=O)NC(=O)S2)C3=CC=CC=N3 (racemic) [rosiglitazone]
Summary of the method: as §1

[6] = compound: CN1C2=C(C3=C1C(=O)N(N=C3)CC4=CC(=CC=C4)N)SC(=C2)S(=O)C
Summary of the method: as §1

[7] = compound: CN1CCC(CNc2ccc3ncc(-c4cccc(OC(F)(F)F)c4)n3n2)CC1
Summary of the method: as §1

saracatinib = compound: CN1CCN(CCOc2cc(OC3CCOCC3)c3c(Nc4c(Cl)ccc5c4OCO5)ncnc3c2)CC1 [saracatinib]
Summary of the method: as §1

sotrastaurin = compound: CN1CCN(c2nc(C3=C(c4c[nH]c5ccccc45)C(=O)NC3=O)c3ccccc3n2)CC1 [sotrastaurin]
Summary of the method: as §1

alvocidib = compound: CN1CC[C@H](c2c(O)cc(O)c3c(=O)cc(-c4ccccc4Cl)oc23)[C@H](O)C1 [alvocidib]
Summary of the method: as §1

Tubastatin A = compound: CN1CCc2c(c3ccccc3n2Cc2ccc(C(=O)NO)cc2)C1 [Tubastatin A]
Summary of the method: as §1

[8] = compound: CNC(=O)C1=CC=CC=C1NC2=NC(=NC=C2Cl)NC3=C(C=C(C=C3)N4CCOCC4)OC
Summary of the method: as §1

defactinib = compound: CNC(=O)c1ccc(Nc2ncc(C(F)(F)F)c(NCc3nccnc3N(C)S(C)(=O)=O)n2)cc1 [defactinib]
Summary of the method: as §1

rucaparib = compound: CNCc1ccc(-c2[nH]c3cc(F)cc4c3c2CCNC4=O)cc1 [rucaparib]
Summary of the method: as §1

[9] = compound: CNc1nc(-c2ccc3c(N)n[nH]c3c2)cc(N2C[C@@H](C(=O)NC3CCCCC3)CC[C@H]2C)n1
Summary of the method: as §1

encorafenib = compound: COC(=O)N[C@@H](C)CNc1nccc(-c2cn(C(C)C)nc2-c2cc(Cl)cc(NS(C)(=O)=O)c2F)n1 [encorafenib]
Summary of the method: as §1

[10] = compound: COC(=O)[C@H](CCSC)NC(=O)C1=C(C=C(C=C1)NC[C@H](CS)N)C2=CC=CC=C2
Summary of the method: as §1

Measured: log2 fold change

NUP155 (UniProt O75694)
inactive: [1] -0.005 | volasertib -0.023 | [2] 0.061 | epoxomicin 0.007 | [3] -0.058 | [4] -0.075 | [5] 0.024 | rosiglitazone 0.073 | [6] -0.077 | [7] -0.092 | saracatinib -0.055 | sotrastaurin -0.008 | alvocidib -0.068 | Tubastatin A 0.012 | [8] -0.029 | defactinib -0.057 | rucaparib -0.003 | [9] 0.02 | encorafenib 0.084 | [10] -0.053

NUBP2 (UniProt Q9Y5Y2)
inactive: [1] -0.003 | volasertib -0.153 | [2] 0.037 | epoxomicin -0.005 | [3] -0.018 | [4] -0.09 | [5] 0.038 | rosiglitazone 0.034 | [6] -0.134 | [7] -0.097 | saracatinib 0.017 | sotrastaurin 0.016 | alvocidib -0.169 | Tubastatin A -0.043 | [8] -0.055 | defactinib -0.07 | rucaparib 0.033 | [9] 0.047 | encorafenib 0.043 | [10] -0.006

NUDT15 (UniProt Q9NV35)
inactive: [1] 0.002 | volasertib -0.088 | [2] -0.006 | epoxomicin 0.067 | [3] -0.021 | [4] 0.14 | [5] 0.064 | rosiglitazone 0.068 | [6] -0.082 | [7] 0.354 | saracatinib 0.05 | sotrastaurin -0.008 | alvocidib -0.161 | Tubastatin A 0.004 | [8] 0.009 | defactinib -0.016 | rucaparib -0.009 | [9] -0.027 | encorafenib 0.005 | [10] -0.021

PA2G4 (UniProt Q9UQ80)
inactive: [1] 0.038 | volasertib 0.072 | [2] 0.04 | epoxomicin 0.079 | [3] -0.01 | [4] -0.078 | [5] -0.016 | rosiglitazone 0.054 | [6] -0.023 | [7] 0.007 | saracatinib -0.031 | sotrastaurin 0.005 | alvocidib -0.035 | Tubastatin A 0.045 | [8] 0.006 | defactinib 0.017 | rucaparib -0.036 | [9] 0.068 | encorafenib 0.046 | [10] -0.019

NUCB2 (UniProt P80303)
inactive: [1] 0.045 | volasertib 0.06 | [2] -0.01 | epoxomicin -0.006 | [3] 0.016 | [4] 0.003 | [5] -0.027 | rosiglitazone 0.003 | [6] 0.01 | [7] 0.04 | saracatinib 0.055 | sotrastaurin 0.044 | alvocidib 0.006 | Tubastatin A -0.017 | [8] -0.011 | defactinib 0.011 | rucaparib -0.063 | [9] -0.053 | encorafenib -0.017 | [10] 0.007

OGA (UniProt O60502)
inactive: [1] -0.032 | volasertib -0.21 | [2] 0.01 | epoxomicin 0.005 | [3] -0.005 | [4] -0.024 | [5] 0.004 | rosiglitazone 0.025 | [6] -0.058 | [7] 0.008 | saracatinib 0.014 | sotrastaurin 0.011 | alvocidib -0.121 | Tubastatin A -0.044 | [8] 0.011 | defactinib -0.009 | rucaparib 0.003 | [9] -0.012 | encorafenib -0.028 | [10] 0.037

OIP5 (UniProt O43482)
inactive: [1] 0 | volasertib -0.013 | [2] 0.017 | epoxomicin -0.013 | [3] -0.019 | [4] -0.013 | [5] 0.005 | rosiglitazone 0.042 | [6] -0.07 | [7] -0.094 | saracatinib 0.008 | sotrastaurin 0.047 | alvocidib -0.162 | Tubastatin A -0.005 | [8] -0.006 | defactinib -0.037 | rucaparib -0.024 | [9] -0.027 | encorafenib 0.015 | [10] 0.048

Taken from above (2 entries):
NUCB2 (UniProt P80303)
inactive: [1] 0.045 | volasertib 0.06 | [2] -0.01 | epoxomicin -0.006 | [3] 0.016 | [4] 0.003 | [5] -0.027 | rosiglitazone 0.003 | [6] 0.01 | [7] 0.04 | saracatinib 0.055 | sotrastaurin 0.044 | alvocidib 0.006 | Tubastatin A -0.017 | [8] -0.011 | defactinib 0.011 | rucaparib -0.063 | [9] -0.053 | encorafenib -0.017 | [10] 0.007

OGA (UniProt O60502)
inactive: [1] -0.032 | volasertib -0.21 | [2] 0.01 | epoxomicin 0.005 | [3] -0.005 | [4] -0.024 | [5] 0.004 | rosiglitazone 0.025 | [6] -0.058 | [7] 0.008 | saracatinib 0.014 | sotrastaurin 0.011 | alvocidib -0.121 | Tubastatin A -0.044 | [8] 0.011 | defactinib -0.009 | rucaparib 0.003 | [9] -0.012 | encorafenib -0.028 | [10] 0.037

Next entries:

NUP37 (UniProt Q8NFH4)
inactive: [1] -0.011 | volasertib -0.156 | [2] -0.009 | epoxomicin 0.027 | [3] -0.008 | [4] -0.004 | [5] -0.01 | rosiglitazone 0.007 | [6] 0.008 | [7] -0.034 | saracatinib -0.04 | sotrastaurin -0.028 | alvocidib -0.021 | Tubastatin A -0.019 | [8] 0.074 | defactinib -0.046 | rucaparib -0.03 | [9] -0.072 | encorafenib 0.026 | [10] 0.003

OXCT1 (UniProt P55809)
inactive: [1] 0.035 | volasertib 0.037 | [2] 0.008 | epoxomicin 0.05 | [3] -0.011 | [4] -0.069 | [5] -0.005 | rosiglitazone 0.045 | [6] -0.077 | [7] 0.103 | saracatinib 0.023 | sotrastaurin 0.002 | alvocidib -0.06 | Tubastatin A -0.002 | [8] 0.028 | defactinib -0.039 | rucaparib -0.08 | [9] 0.014 | encorafenib -0.019 | [10] 0.006

OLA1 (UniProt Q9NTK5)
inactive: [1] -0.041 | volasertib -0.091 | [2] 0.047 | epoxomicin 0.046 | [3] 0.012 | [4] -0.031 | [5] -0.031 | rosiglitazone 0.024 | [6] -0.052 | [7] -0.02 | saracatinib 0.012 | sotrastaurin 0.005 | alvocidib -0.027 | Tubastatin A 0.004 | [8] -0.032 | defactinib -0.027 | rucaparib -0.041 | [9] -0.026 | encorafenib 0.025 | [10] 0.006

NUDT9 (UniProt Q9BW91)
inactive: [1] -0.097 | volasertib -0.181 | [2] 0.024 | epoxomicin 0.009 | [3] 0.049 | [4] -0.067 | [5] 0.014 | rosiglitazone 0.069 | [6] -0.016 | [7] 0.097 | saracatinib -0.065 | sotrastaurin -0.023 | alvocidib -0.046 | Tubastatin A -0.029 | [8] 0.049 | defactinib -0.047 | rucaparib -0.057 | [9] -0.035 | encorafenib 0.037 | [10] -0.027

OGT (UniProt O15294)
inactive: [1] -0.075 | volasertib -0.075 | [2] 0.019 | epoxomicin 0.024 | [3] -0.069 | [4] -0.12 | [5] 0.057 | rosiglitazone 0.005 | [6] 0.04 | [7] 0.104 | saracatinib -0.054 | sotrastaurin -0.105 | alvocidib -0.086 | Tubastatin A -0.001 | [8] -0.032 | defactinib -0.098 | rucaparib 0.054 | [9] 0.01 | encorafenib 0.096 | [10] -0.046

NUP214 isoform 5 (UniProt P35658)
inactive: [1] -0.057 | volasertib -0.285 | [2] 0.056 | epoxomicin 0.022 | [3] -0.054 | [4] 0.08 | [5] 0.02 | rosiglitazone 0.007 | [6] 0.226 | [7] 0.015 | saracatinib -0.092 | sotrastaurin -0.154 | alvocidib 0.025 | Tubastatin A 0.063 | [8] 0.03 | defactinib 0 | rucaparib 0.24 | [9] 0.125 | encorafenib 0.159 | [10] -0.078

NUDCD3 (UniProt Q8IVD9)
inactive: [1] -0.107 | volasertib -0.238 | [2] 0.049 | epoxomicin 0.028 | [3] 0.004 | [4] -0.102 | [5] 0.03 | rosiglitazone 0.056 | [6] -0.032 | [7] -0.087 | saracatinib -0.012 | sotrastaurin -0.08 | alvocidib -0.119 | Tubastatin A 0.062 | [8] 0.021 | defactinib -0.15 | rucaparib -0.003 | [9] 0.042 | encorafenib 0.029 | [10] -0.015

NUP50 (UniProt Q9UKX7)
inactive: [1] 0.073 | volasertib 0.084 | [2] 0.022 | epoxomicin 0.009 | [3] 0.017 | [4] -0.048 | [5] -0.026 | rosiglitazone 0.007 | [6] -0.079 | [7] 0 | saracatinib 0.053 | sotrastaurin -0.015 | alvocidib 0.002 | Tubastatin A -0.029 | [8] -0.016 | defactinib -0.016 | rucaparib 0.015 | [9] 0.016 | encorafenib -0.026 | [10] 0.009

NUDCD1 (UniProt Q96RS6)
inactive: [1] -0.046 | volasertib -0.149 | [2] 0.025 | epoxomicin 0.028 | [3] 0.001 | [4] -0.069 | [5] 0.022 | rosiglitazone 0.024 | [6] -0.073 | [7] -0.087 | saracatinib 0.011 | sotrastaurin -0.026 | alvocidib -0.097 | Tubastatin A -0.023 | [8] 0.014 | defactinib -0.079 | rucaparib -0.047 | [9] -0.036 | encorafenib 0.008 | [10] -0.008
